# No constants are given. Whether binding was seen depends on the method and setting. In cells and extracts the contact can be indirect. Some results given as binding are weak or reduced against the parent protein; the word gives no strength.
# Sequences of proteins named here, by UniProt entry; tags and fusion partners are left off.
# UniProt Q9WTL8: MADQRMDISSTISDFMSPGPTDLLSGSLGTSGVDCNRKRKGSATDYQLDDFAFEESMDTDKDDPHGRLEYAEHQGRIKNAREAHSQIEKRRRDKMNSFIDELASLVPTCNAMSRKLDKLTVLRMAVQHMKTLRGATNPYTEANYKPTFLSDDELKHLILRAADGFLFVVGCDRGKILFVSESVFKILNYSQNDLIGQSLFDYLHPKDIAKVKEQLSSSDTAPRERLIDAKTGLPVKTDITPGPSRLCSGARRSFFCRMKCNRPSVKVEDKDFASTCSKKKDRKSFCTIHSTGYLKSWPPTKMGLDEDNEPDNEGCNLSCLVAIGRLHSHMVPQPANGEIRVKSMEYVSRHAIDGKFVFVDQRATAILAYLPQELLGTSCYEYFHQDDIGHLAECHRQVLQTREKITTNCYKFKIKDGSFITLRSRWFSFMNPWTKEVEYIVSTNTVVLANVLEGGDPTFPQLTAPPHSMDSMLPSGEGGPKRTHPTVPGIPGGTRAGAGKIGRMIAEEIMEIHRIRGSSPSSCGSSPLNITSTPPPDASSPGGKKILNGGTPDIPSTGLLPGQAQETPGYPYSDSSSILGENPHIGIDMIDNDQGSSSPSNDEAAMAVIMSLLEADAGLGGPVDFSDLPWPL
# UniProt O00327: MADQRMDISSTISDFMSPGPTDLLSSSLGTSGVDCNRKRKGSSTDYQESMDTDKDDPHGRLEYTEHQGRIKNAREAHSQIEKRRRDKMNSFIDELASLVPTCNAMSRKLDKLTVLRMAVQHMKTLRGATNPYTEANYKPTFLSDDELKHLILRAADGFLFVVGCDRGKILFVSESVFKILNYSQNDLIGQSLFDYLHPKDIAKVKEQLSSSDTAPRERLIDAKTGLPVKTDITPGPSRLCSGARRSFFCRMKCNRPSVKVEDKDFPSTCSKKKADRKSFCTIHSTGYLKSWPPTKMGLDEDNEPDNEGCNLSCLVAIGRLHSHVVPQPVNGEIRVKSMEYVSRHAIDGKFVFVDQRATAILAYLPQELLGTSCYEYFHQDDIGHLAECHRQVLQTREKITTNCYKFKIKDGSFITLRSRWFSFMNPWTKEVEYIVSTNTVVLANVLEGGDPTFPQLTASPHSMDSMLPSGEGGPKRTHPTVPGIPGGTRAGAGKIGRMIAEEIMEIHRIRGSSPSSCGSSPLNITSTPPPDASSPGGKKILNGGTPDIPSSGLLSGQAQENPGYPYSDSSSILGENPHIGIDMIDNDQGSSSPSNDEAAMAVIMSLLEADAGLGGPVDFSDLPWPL
# UniProt P57780: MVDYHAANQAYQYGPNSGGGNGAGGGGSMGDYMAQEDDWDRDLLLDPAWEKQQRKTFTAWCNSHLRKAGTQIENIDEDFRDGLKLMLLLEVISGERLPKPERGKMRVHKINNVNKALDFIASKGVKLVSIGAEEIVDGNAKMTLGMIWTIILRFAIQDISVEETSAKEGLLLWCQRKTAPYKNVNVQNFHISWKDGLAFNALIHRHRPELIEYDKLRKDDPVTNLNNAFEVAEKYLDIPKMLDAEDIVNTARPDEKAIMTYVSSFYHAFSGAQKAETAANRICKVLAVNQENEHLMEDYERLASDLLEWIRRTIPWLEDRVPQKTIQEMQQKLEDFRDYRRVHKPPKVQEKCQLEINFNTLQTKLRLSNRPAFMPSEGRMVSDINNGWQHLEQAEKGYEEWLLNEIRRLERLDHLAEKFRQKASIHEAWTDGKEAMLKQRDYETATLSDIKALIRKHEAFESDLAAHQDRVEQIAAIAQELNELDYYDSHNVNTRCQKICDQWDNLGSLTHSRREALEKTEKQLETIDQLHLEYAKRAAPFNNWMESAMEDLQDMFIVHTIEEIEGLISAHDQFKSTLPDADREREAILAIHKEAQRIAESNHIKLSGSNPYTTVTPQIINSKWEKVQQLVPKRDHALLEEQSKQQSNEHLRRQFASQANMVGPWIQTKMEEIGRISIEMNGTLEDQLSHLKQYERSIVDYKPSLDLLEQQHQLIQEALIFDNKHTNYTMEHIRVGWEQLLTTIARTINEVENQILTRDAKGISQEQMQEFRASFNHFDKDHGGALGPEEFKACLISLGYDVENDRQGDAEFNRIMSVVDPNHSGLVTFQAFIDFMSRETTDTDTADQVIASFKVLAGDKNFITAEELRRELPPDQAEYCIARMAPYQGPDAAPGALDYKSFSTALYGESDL
# UniProt Q61188: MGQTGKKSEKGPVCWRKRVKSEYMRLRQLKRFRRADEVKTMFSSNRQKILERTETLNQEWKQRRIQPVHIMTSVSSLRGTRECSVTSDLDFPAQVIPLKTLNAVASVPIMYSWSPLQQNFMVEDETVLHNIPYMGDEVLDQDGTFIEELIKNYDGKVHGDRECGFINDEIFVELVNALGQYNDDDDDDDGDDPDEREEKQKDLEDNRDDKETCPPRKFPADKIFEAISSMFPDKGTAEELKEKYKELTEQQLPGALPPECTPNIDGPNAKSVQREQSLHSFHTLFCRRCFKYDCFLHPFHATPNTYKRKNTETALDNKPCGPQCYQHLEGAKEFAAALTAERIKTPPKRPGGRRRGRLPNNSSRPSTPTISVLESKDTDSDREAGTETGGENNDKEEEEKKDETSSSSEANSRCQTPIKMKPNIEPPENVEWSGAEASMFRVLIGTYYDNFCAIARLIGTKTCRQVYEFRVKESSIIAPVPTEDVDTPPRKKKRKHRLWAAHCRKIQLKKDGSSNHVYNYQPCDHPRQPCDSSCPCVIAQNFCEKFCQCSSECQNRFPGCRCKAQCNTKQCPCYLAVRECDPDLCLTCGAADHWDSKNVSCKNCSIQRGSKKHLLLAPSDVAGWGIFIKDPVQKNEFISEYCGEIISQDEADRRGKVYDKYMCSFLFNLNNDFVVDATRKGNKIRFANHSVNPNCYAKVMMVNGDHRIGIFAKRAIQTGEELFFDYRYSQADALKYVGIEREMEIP
# UniProt P35579: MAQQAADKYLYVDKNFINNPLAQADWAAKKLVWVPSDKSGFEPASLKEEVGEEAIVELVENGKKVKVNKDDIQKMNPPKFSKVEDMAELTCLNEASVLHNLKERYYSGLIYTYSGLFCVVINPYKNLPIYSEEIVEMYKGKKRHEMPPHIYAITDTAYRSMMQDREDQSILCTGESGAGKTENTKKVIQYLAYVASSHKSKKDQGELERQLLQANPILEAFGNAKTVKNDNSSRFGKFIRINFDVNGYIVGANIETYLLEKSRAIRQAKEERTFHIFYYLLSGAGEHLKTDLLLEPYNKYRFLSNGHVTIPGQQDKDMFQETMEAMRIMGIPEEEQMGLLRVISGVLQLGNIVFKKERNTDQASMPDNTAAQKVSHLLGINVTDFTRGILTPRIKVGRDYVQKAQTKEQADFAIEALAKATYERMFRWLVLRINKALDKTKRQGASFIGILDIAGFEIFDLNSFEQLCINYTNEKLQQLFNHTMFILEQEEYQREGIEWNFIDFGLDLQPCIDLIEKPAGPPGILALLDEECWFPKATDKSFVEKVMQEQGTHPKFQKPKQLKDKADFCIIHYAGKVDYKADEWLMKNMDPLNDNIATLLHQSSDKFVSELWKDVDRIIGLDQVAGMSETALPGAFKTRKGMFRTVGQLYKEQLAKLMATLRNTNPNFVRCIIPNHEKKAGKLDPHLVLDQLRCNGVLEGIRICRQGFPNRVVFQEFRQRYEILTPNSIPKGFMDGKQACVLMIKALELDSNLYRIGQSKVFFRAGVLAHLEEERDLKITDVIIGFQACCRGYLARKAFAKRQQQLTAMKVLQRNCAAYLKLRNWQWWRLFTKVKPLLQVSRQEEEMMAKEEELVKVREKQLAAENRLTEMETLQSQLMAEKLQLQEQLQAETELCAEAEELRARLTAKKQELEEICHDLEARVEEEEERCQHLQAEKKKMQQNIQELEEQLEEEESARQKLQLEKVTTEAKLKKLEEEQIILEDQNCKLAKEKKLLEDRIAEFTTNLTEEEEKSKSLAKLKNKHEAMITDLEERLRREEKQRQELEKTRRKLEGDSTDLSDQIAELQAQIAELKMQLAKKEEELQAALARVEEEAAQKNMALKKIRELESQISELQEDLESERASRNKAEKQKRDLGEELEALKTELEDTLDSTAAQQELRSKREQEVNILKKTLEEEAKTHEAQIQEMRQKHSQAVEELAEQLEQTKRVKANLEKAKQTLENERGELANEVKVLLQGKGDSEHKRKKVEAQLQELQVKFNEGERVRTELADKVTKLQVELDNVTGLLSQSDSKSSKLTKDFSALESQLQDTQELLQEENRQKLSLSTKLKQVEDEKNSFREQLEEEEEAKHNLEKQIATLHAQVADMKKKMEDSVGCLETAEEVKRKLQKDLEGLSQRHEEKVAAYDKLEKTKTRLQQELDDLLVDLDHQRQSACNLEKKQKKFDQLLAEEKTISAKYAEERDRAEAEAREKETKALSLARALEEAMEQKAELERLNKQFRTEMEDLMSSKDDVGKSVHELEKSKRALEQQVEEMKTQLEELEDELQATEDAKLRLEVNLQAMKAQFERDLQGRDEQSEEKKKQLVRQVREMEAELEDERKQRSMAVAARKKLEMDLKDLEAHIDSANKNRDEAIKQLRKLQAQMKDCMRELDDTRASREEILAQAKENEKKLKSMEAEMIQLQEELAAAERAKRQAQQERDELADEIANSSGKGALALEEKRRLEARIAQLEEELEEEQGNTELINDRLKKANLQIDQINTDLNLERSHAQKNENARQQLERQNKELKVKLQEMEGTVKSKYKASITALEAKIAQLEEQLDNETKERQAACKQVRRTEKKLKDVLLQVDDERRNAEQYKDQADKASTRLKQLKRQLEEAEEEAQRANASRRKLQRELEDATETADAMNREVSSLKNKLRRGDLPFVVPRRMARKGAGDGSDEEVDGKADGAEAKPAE
# Experiments:
# [1] = biological target: WT-Bmal1, ectopically expressed wild-type Bmal1 (UniProt Q9WTL8); assay: co-IP; cells cross-linked with 1% formaldehyde for 10 min; nuclear extract in high salt nuclear extraction buffer (10 mM HEPES pH 8.0, 0.2 M NaCl); BMAL1 antibody or normal rabbit IgG, protein A beads; immunoblot
# [2] = biological target: BMAL1, endogenous in human melanoma cell lines (human (endogenous in human melanoma cell lines)) (UniProt O00327); assay: proximity ligation; Duolink In Situ Red kit on fixed, permeabilised cells; anti-BMAL1 + anti-MYH9; YUMM2.1 EV, WT-Bmal1, dHLH-Bmal1, reconstituted YUMM2.1KO cells and several human melanoma cell lines; signal mostly in the nucleus
binding [1],binding [2],Substance
binds,–,"Actinin 4 (Actn4), endogenous (from UniProt P57780 1-912)"
no binding,–,"Ezh2, endogenous (from UniProt Q61188 1-746)"
–,binds,"MYH9, endogenous in human melanoma cell lines (from UniProt P35579 1-1960)"

# Reference: publication PMC10799901
